These are yes or no findings as the source states them, for the method shown. Binding seen in cells or lysates may run through a third protein. Some results given as binding are weak or reduced against the parent protein; the word gives no strength.
Biological target: p110α subunit of PI3K in lysates of HEK293 cells transfected with the indicated plasmids (Figure 5C-E) (UniProt P42336)
Experiment: co-IP; HEK293 cells transfected with the indicated plasmids, treated or not with EGF (10 minutes), or with wild type or oncogenic H-Ras; whole cell lysates immunoprecipitated with anti-p110α antibody and protein A/G agarose, 12 hours at 4°C; immunoblot

Amino acid sequences for entries named in this document (tags omitted).
UniProt P42336: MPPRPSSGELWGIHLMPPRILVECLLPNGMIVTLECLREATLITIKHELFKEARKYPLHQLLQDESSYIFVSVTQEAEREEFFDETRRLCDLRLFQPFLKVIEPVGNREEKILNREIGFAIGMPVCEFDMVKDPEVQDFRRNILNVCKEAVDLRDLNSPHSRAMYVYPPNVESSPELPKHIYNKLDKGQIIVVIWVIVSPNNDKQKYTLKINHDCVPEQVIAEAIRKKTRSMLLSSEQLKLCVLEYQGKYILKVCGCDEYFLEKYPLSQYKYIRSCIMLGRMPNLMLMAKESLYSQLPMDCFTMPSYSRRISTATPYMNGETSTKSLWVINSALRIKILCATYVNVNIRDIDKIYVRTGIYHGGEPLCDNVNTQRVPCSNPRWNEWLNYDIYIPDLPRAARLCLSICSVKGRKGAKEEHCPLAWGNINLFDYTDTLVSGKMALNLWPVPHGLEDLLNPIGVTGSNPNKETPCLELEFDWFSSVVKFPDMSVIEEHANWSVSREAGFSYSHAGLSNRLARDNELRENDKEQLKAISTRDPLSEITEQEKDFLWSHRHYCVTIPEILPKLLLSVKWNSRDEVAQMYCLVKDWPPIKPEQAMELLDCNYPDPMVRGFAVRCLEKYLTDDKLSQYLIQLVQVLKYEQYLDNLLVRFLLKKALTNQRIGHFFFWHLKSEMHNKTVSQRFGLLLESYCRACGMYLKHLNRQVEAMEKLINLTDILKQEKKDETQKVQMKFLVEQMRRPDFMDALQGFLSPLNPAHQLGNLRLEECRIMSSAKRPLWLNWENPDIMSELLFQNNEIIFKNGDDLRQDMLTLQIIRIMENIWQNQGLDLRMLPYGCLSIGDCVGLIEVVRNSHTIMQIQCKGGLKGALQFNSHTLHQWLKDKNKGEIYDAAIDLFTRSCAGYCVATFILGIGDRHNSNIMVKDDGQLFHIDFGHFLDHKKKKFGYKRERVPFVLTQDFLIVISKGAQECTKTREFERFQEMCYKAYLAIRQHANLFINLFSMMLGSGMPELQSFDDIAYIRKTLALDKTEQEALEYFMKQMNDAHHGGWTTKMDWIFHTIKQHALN
UniProt Q9UQ13: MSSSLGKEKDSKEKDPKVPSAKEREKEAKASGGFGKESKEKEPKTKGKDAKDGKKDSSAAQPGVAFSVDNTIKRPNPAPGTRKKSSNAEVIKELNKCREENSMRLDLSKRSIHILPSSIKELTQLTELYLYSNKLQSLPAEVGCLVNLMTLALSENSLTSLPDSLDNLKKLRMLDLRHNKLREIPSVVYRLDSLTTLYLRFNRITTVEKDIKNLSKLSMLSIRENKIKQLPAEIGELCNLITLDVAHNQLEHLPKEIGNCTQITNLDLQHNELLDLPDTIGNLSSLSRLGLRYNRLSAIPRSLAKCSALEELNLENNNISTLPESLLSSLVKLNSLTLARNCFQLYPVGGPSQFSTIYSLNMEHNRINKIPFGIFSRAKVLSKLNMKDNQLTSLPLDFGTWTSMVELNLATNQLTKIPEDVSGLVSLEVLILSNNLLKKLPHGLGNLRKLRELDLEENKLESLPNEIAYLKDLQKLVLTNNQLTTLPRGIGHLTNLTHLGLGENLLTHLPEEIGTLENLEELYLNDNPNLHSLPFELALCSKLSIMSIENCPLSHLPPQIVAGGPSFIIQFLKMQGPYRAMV

Sur8 in lysates of HEK293 cells transfected with the indicated plasmids (Figure 5C-E) (from UniProt Q9UQ13 1-582)
binding: binds
